Reference: PubChem BioAssay AID485314 (National Center for Advancing Translational Sciences (NCATS), 2010)
In all, about 340,000 compounds went through this assay and about 4,500 (1.3%) were called active. The inconclusive results got no clear call from the source; some entries with a clear call stand among them for comparison. The call rests on the fitted dose curve; in most records, active means well fitted inhibition curve with a large enough effect; inconclusive means small, poorly fitted or top-dose-only effect, or another doubt; inactive means no such curve, though single readings can be large or run the other way. Potencies beside an inconclusive call are fits to weak or partial responses and may not hold up.
On the % scale 0 is the no-effect control and ±100 the full control effect; potency means the concentration at half of the fitted maximal effect.

What follows are molecules tested against DNA polymerase beta (Homo sapiens) (UniProt P06746) (assay: qHTS Assay for Inhibitors of DNA Polymerase Beta). Settings: Pol beta primer extension/strand displacement, fluorescence kinetic; activity change, negative = inhibition: at 114 µM (top of the series).
In short: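 Curves were derived by four-parameter Hill fits of normalized qHTS data. The kinetic fluorescent primer-extension read was taken at 0 and 10 min after 50 nM substrate, following a 15 min room-temperature preincubation of 10 nM enzyme with compounds.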
`COc1ccc(-c2nc(NC(=O)C3CCN(c4nc5ccccc5o4)CC3)sc2C)cc1` was tested, and the Potency was inconclusive: 70.8 µM [inhibitor, single point]. `CCCCC1=CC2=CC(=O)C(C)(OC(=O)c3cnc4ccccc4n3)C(=O)C2=CO1` (stereo not given) was tested, and the Potency was active: 50.1 µM. `CCOc1ccccc1NC(=O)CN1C(=O)C(=O)N(Cc2ccco2)C1=O` was tested, and the Potency was inconclusive: 31.6 µM [inhibitor, single point]. With `O=C(NCc1ccccc1)c1ccc(CS(=O)(=O)Cc2ccccc2F)o1` the Potency was “inactive”. For `CCCCOC(=O)/C(=C\c1ccc([N+](=O)[O-])o1)NC(=O)c1ccccc1`, the Potency was inconclusive: 100 µM [inhibitor, single point]. With `C/C(=N\OC(=O)c1ccc(C)cc1)c1sc(C)nc1C` the Potency was “inactive”. `CCN(CC)S(=O)(=O)c1ccc(NC(=O)c2cnccn2)cc1` was tested, and the Potency was inconclusive: 3.55 µM [inhibitor, full curve]. With `COc1ccccc1N1CC(C(=O)Nc2nnc(SCC(=O)NCC3CCCO3)s2)CC1=O` (stereo not given) the Potency was “inactive”. With `CC(C)CCn1c(SCC(=O)N2CC(=O)Nc3ccccc32)nc2scc(-c3cccs3)c2c1=O` the Potency was active: 22.4 µM. In the case of `O=C(Nc1cc(Cl)cc(Cl)c1)c1ccc(Cn2c(=O)[nH]c3ccsc3c2=O)cc1`, the Potency was active: 14.1 µM. `CCn1c2ccccc2c2cnc(N=CN(C)C)c(C#N)c21` was tested, and the Potency was “inactive”. In the case of `O=C(CN1CCN(c2ccc(F)cc2)CC1)NC(=O)NCc1ccco1`, the Potency was inconclusive: 3.16 µM [inhibitor, partial curve, poor fit]. With `Cc1ccc(CNC(=O)C2CCN(C(=O)c3cnn(-c4ccccc4)c3-n3cccc3)CC2)cc1` the Potency was “inactive”. For `O=C(CSc1nc(-c2ccc(F)cc2)nc2c1Cc1ccccc1O2)Nc1ccc(C(=O)O)cc1`, the Potency was active: 4.47 µM. With `CC(=O)Nc1ccc(Nc2nnc(-c3ccc(C)c(S(N)(=O)=O)c3)c3ccccc23)cc1` the Potency was inconclusive: 3.16 µM [inhibitor, single point]. `O=c1c2ccccc2sc2nc(C3CCCCC3)n(Cc3ccco3)c(=O)c12` was tested, and the Potency was active: 22.4 µM. In the case of `CCCCOC(=O)c1sc2nc(C)cc(C)c2c1N`, the Potency was inconclusive: 89.1 µM [inhibitor, single point]. For `Cc1ccc(N=Nc2c(O)ccc3n[nH]nc23)cc1`, the Potency was “inactive”. For `CCOc1cc(S(=O)(=O)NCc2ccc3c(c2)OCO3)ccc1F`, the Potency was inconclusive: 89.1 µM [inhibitor, single point]. In the case of `Cn1c(NC(=O)c2ccc(Cl)cc2)c(-c2ccccn2)c(=O)c2ccccc21`, the Potency was inconclusive: 39.8 µM [inhibitor, single point]. `O=C(CCC1N=C2c3ccccc3N=C(SCC(=O)NCc3ccco3)N2C1=O)NCc1ccco1` (stereo not given) was tested, and the Potency was active: 31.6 µM. With `Cc1ccc(NC(=O)c2cncc(Br)c2)nc1` the Potency was inconclusive: 0.158 µM [inhibitor, full curve, poor fit]. With `Clc1nc(Oc2ccccc2)nc(-c2cn(-c3ccccc3)c3ccccc23)n1` the Potency was “inactive”. `O=C(Nc1ccc(S(=O)(=O)N(Cc2ccccc2)c2ccccc2)cc1)c1ccc([N+](=O)[O-])cc1` was tested, and the Potency was “inactive”. `O=C(NCc1ccc2c(c1)CCN2C(=O)c1ccccc1)c1ccco1` was tested, and the Potency was “inactive”. With `COc1ccc(CNC(=O)Nc2cc(C)cc(C)c2)cc1` the Potency was active: 31.6 µM. In the case of `O=C(Cc1ccc(S(=O)(=O)N2CCOCC2)s1)Nc1ccc(N2CCOCC2)cc1`, the Potency was active: 31.6 µM. For `COc1cccc(N2CCN(C(=O)c3cc4c(=O)n(Cc5ccco5)ccc4nc3C)CC2)c1`, the Potency was inconclusive: 39.8 µM [inhibitor, partial curve]. With `COc1ccc(Cl)cc1N1C(=O)[C@@H]2C(c3cccc(OC)c3OC)=NO[C@@H]2C1=O` the Potency was “inactive”. In the case of `Cc1ccc(C(=O)N/C(=C/C=C/c2ccccc2)C(=O)NCc2ccco2)cc1`, the Potency was inconclusive: 0.112 µM [inhibitor, partial curve, poor fit]. For `CCc1ccc(NS(=O)(=O)c2ccc3[nH]cc(C(=O)N4CCCCC4)c(=O)c3c2)cc1`, the Potency was inconclusive: 12.6 µM [inhibitor, full curve]. With `O=C(Nc1cc(C(F)(F)F)cc(C(F)(F)F)c1)c1ccc(Cn2cc(C(F)(F)F)ccc2=O)cc1` the Potency was “inactive”. For `O=C(/C=C/c1ccco1)c1ccc(O)cc1`, the Potency was inconclusive: 17.8 µM [inhibitor, full curve, poor fit]. In the case of `Cc1ccc(C(O)(COC(=O)C(C)C)COC(=O)C(C)C)c(O)c1`, the Potency was inconclusive: 39.8 µM [inhibitor, single point]. In the case of `COc1ccc(C(CNC(=O)COc2ccccc2-c2ccccc2)N2CCOCC2)cc1` (stereo not given), the Potency was inconclusive: 89.1 µM [inhibitor, single point]. `CC(C)NC(=S)N/N=C/c1ccccc1[N+](=O)[O-]` was tested, and the Potency was “inactive”. In the case of `CCc1ccc(NC(=O)CCc2nnc3ccc(N4CCCC4)nn23)cc1`, the Potency was inconclusive: 0.316 µM [inhibitor, full curve, poor fit]. For `CCn1c(CSCc2ccc(C)cc2)nnc1SCC(=O)N1CCN(c2ccccc2)CC1`, the Potency was inconclusive: 3.16 µM [inhibitor, full curve, poor fit]. In the case of `COc1ccc(N(CC(O)Cn2c(C)nc3ccccc32)S(=O)(=O)c2ccc(C)cc2)cc1` (stereo not given), the Potency was “inactive”. In the case of `CS(=O)(=O)n1nc(-c2ccc(Cl)cc2)nc1N`, the Potency was inconclusive: 3.55 µM [inhibitor, partial curve]. In the case of `O=C(c1cc2nc(-c3ccc(F)cc3)cc(C(F)(F)F)n2n1)N1CCCCC1c1cccnc1` (stereo not given), the Potency was inconclusive: 39.8 µM [inhibitor, single point]. For `O=C(CCC1CCCCC1)NCCN1C2=NC[C@H](Cc3ccc(O)cc3)N2C[C@H]1Cc1ccc(O)cc1`, the Potency was “inactive”. With `O=C1CC(=O)N(Cc2ccco2)C(=S)N1` the Potency was active: 7.94 µM. For `CCc1nc(SCC(=O)NCc2ccco2)c2c(=O)n(C)c(=O)n(C)c2n1`, the Potency was inconclusive: 28.2 µM [inhibitor, single point]. In the case of `CCN(CC)c1ccc(/C=C(\C#N)C(N)=O)cc1`, the Potency was inconclusive: 79.4 µM [inhibitor, single point]. For `Cc1nn(CC(=O)NC2C(=O)N3C(C(=O)O)=C(CSc4nnnn4C)CSC23)cc1Br` (stereo not given), the Potency was active: 31.6 µM. For `C=CCNCc1cc(=O)n2c(-c3ccccc3)csc2n1`, the Potency was inconclusive: 70.8 µM [inhibitor, single point]. In the case of `CCOC(=O)C1=C(N)n2c(s/c(=C\c3ccco3)c2=O)=C(C(=O)OC(C)C)C1c1ccco1` (stereo not given), the Potency was inconclusive: 79.4 µM [inhibitor, single point]. In the case of `O=C(O)/C(=C\c1ccc(Cl)c([N+](=O)[O-])c1)c1ccc(S(=O)(=O)N2CCCCC2)s1`, the Potency was inconclusive: 28.2 µM [inhibitor, full curve]. With `COc1cccc(NCc2cc(=O)oc3cc(-c4ccccc4)c(O)cc23)c1` the Potency was inconclusive: 89.1 µM [inhibitor, single point]. In the case of `COc1ccc(CCNC(=O)CCn2c(=O)c3ccccc3n(Cc3ccccc3C)c2=O)cc1OC`, the Potency was inconclusive: 89.1 µM [inhibitor, single point]. With `Cc1ccnc2nc(C(=O)OCCOc3ccc(Cl)cc3)nn12` the Potency was inconclusive: 39.8 µM [inhibitor, single point]. With `O=C(O)Cc1ccc(NC(=O)c2ccc(NC(=O)c3ccco3)cc2)cc1` the Potency was inconclusive: 25.1 µM [inhibitor, partial curve, poor fit]. `O=C(/C=C/c1ccco1)Oc1cc(Br)cc(/C=N/NC(=O)c2ccccc2O)c1` was tested, and the Potency was inconclusive: 39.8 µM [inhibitor, single point]. With `c1cc2nc(C34CC5CC(CC(C5)C3)C4)[nH]c2cn1` the Potency was “inactive”. `Cc1ccc(-c2nc3c(c(SCC(=O)Nc4cccc(C(=O)O)c4)n2)Cc2cccc(C)c2O3)cc1` was tested, and the Potency was active: 1.78 µM. For `COc1ccc(NC2CCCN(C(=O)c3cc(CC(C)C)nc(N)n3)C2)cc1` (stereo not given), the Potency was “inactive”. With `COC(=O)c1ccc(NC(=O)COc2ccc([N+](=O)[O-])cc2)cc1` the activity change, negative = inhibition was inconclusive: -162% [inhibitor]. For `COc1cccc(CNC(=O)CCC2CCCN(Cc3cc(Cl)ccc3O)C2)c1` (stereo not given), the Potency was “inactive”. For `O=c1cc(-c2ccccc2)nc2c(-c3ccccc3)c(C(F)(F)F)[nH]n12`, the Potency was active: 79.4 µM. With `CC(C)(C)c1ccc(C(=O)NCC(=O)O)cc1` the Potency was inconclusive: 1 µM [inhibitor, full curve]. `CN1CCN(S(=O)(=O)c2cccc(C(=O)Nc3cc(C(N)=O)cc(C(N)=O)c3)c2)CC1` was tested, and the Potency was inconclusive: 14.1 µM [inhibitor, full curve]. In the case of `CCCCOC(=O)c1ccc(N/C(=N\S(=O)(=O)c2ccccc2)c2ccccc2)cc1`, the Potency was inconclusive: 1.41 µM [inhibitor, full curve, poor fit]. With `O=C1c2ccc3c4c(ccc(c24)C(=O)N1CCCCO)C(=O)N(CCCCO)C3=O` the Potency was “inactive”. For `CCc1c(C)nc2nc(-c3ccccc3)nn2c1NCc1ccc(C)cc1`, the Potency was inconclusive: 79.4 µM [inhibitor, single point]. For `CC(=O)c1ccc(N2CCC(C)CC2)c(F)c1`, the Potency was “inactive”. `COc1cc(/C=N/NC(=O)c2cc(-c3ccc4c(c3)OCO4)n[nH]2)ccc1O` was tested, and the Potency was active: 8.91 µM. In the case of `Cc1cccc(N2CC(C(=O)Nc3nnc(SCc4ccccn4)s3)CC2=O)c1` (stereo not given), the Potency was inconclusive: 89.1 µM [inhibitor, single point]. For `Cc1oc2ccc(O)c(CN3CCCC(C)C3)c2c1C(=O)Nc1ccccc1` (stereo not given), the Potency was “inactive”. `C=CCN(CC=C)S(=O)(=O)c1ncn[nH]1` was tested, and the Potency was inconclusive: 50.1 µM [inhibitor, partial curve].
